We go through three molecules from patent US20180094274A1 (BOARD OF TRUSTEES OF MICHIGAN STATE UNIVERSITY, published 2018).

In test [1] the target is full length AtWRI1 (bait fusion, yeast two-hybrid) (Arabidopsis thaliana) (UniProt Q6X5Y6). In words: yeast two-hybrid (AtWRI1 bait, 14-3-3 prey).
Test [2] has the same target. Kind of test: yeast two-hybrid, growth on -Leu/-Trp/-His.
The target of test [3] is AtWRI1^1-92 (yeast two-hybrid) (Arabidopsis thaliana) (UniProt Q6X5Y6). In words: yeast two-hybrid with truncated AtWRI1 variants.
Test [4] has as its target T1, nYFP-AtWRI1 (Arabidopsis thaliana, UniProt Q6X5Y6 1-430).
T1 construct: BiFC construct transiently produced in N. benthamiana leaves; also called 35S:nYFP-AtWRI1; not shown: N-terminal half of YFP from the BiFC vector
T1 sequence: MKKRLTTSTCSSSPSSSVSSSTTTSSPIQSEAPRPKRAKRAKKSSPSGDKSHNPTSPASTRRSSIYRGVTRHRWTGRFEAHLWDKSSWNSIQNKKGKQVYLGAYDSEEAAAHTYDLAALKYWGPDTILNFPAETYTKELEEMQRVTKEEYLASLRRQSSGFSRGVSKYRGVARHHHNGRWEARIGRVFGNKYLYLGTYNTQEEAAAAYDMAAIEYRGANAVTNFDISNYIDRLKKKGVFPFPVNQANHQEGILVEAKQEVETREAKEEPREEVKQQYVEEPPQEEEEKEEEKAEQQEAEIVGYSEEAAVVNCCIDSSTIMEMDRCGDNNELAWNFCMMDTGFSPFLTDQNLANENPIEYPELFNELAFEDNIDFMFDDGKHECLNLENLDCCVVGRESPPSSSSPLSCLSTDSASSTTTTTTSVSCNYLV
In words: BiFC, transient expression in N. benthamiana leaves (data not shown).

Test [5] concerns the target full length AtWRI1 (bait fusion, yeast two-hybrid) (Arabidopsis thaliana) (UniProt Q6X5Y6). Kind of test: yeast two-hybrid.

These are yes or no findings as the source states them, for the method shown. Some results given as binding are weak or reduced against the parent protein; the word gives no strength. For some assays here: Where a sequence is shown, tags or fusion partners need not be part of it.

B1: 14-3-3κ (prey fusion, yeast two-hybrid) (protein, not shown: large carriers)
chain: MATTLSRDQYVYMAKLAEQAERYEEMVQFMEQLVSGATPAGELTVEERNLLSVAYKNVIGSLRAAWRIVSSIEQKEESRKNEEHVSLVKDYRSKVETELSSICSGILRLLDSHLIPSATASESKVFYLKMKGDYHRYLAEFKSGDERKTAAEDTMIAYKAAQDVAVADLAPTHPIRLGLALNFSVFYYEILNSSEKACSMAKQAFEEAIAELDTLGEESYKDSTLIMQLLRDNLTLWTSDMQVCPILYFHIQLHHQKLAY
B1: the binding result in test [1], in test [2] and in test [3] was “binds” in each case.

B2: cYFP-14-3-3κ (protein, not shown: large carriers)
chain: B1 chain
On to B2, for which, in test [4], the binding entry is “binds”.

B3: 14-3-3υ (yeast two-hybrid) (protein, Arabidopsis, UniProt P42645 1-268, looked up, not shown: large carriers)
chain: MSSDSSREENVYLAKLAEQAERYEEMVEFMEKVAKTVETEELTVEERNLLSVAYKNVIGARRASWRIISSIEQKEDSRGNSDHVSIIKDYRGKIETELSKICDGILNLLEAHLIPAASLAESKVFYLKMKGDYHRYLAEFKTGAERKEAAESTLVAYKSAQDIALADLAPTHPIRLGLALNFSVFYYEILNSSDRACSLAKQAFDEAISELDTLGEESYKDSTLIMQLLRDNLTLWTSDLNDEAGDDIKEAPKEVQKVDEQAQPPPSQ
With B3, the binding entry in test [5] is reported as “binds”.
